Source: PubChem BioAssay AID1259424 (University of Nebraska Medical Center, 2018)
Assay: 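Find knockdowns that reproduce the expression shifts seen after KSR1 loss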 (primary screen). System: human HCT116 colon cancer cells. Reagents: siRNA pool against human genes, 50 nM. Read-out: 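Log2 levels of six mRNAs (branched-DNA multiplex), adjusted by two reference genes and the non-targeting median, then scored against the average KSR1 knockdown pattern as Pearson r and euclidean distance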. Direction: mean correlation with KSR1 profile and KSR1 correlation: higher = expression change more like KSR1 knockdown; mean distance from KSR1 profile: higher = expression change less like KSR1 knockdown.
The deposit covers about 14,000 reagents; this is a part drawn at random. 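Higher correlation or smaller distance means closer resemblance to KSR1 loss; control wells, including KSR1 knockdowns, recur on many plates.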 Not all columns of the deposit are shown. Not given: the time to read-out.

target gene	mean correlation with KSR1 profile	mean distance from KSR1 profile	KSR1 correlation, replicate 1	KSR1 correlation, replicate 2
KIF2B (kinesin family member 2B)	-0.652	1.61	-0.514	-0.701
FBRS (fibrosin)	-0.74	2.57	-0.719	-0.716
CCSER2 (coiled-coil serine rich protein 2)	0.0888	1.99	-0.208	0.251
TCFL5 (transcription factor like 5)	0.954	0.989	0.852	0.904
ATG4D (autophagy related 4D cysteine peptidase)	0.173	2.88	0.168	0.0674
RTL8A (retrotransposon Gag like 8A)	-0.505	3.07	-0.212	-0.656
VAX2 (ventral anterior homeobox 2)	0.3	2.22	0.193	0.467
RIC1 (RIC1 partner of RAB6A GEF complex)	-0.557	1.69	-0.511	-0.332
MICALL1 (MICAL like 1)	-0.0306	2.19	0.0521	0.138
SIAH2 (siah E3 ubiquitin protein ligase 2)	0.521	0.915	0.199	0.419
HYCC1 (hyccin PI4KA lipid kinase complex subunit 1)	0.788	0.878	0.641	0.714
PTP4A3 (protein tyrosine phosphatase 4A3)	-0.855	2.28	-0.728	-0.863
DHPS (deoxyhypusine synthase)	-0.0301	1.57	-0.152	0.209
CNGA2 (cyclic nucleotide gated channel subunit alpha 2)	-0.434	3.05	-0.529	-0.27
CDK14 (cyclin dependent kinase 14)	-0.285	3.27	0.119	-0.407
DPP4 (dipeptidyl peptidase 4)	-0.00287	1.84	0.0825	0.25
ENSA (endosulfine alpha)	-0.388	1.95	-0.327	-0.552
CCDC91 (coiled-coil domain containing 91)	-0.375	1.72	-0.448	-0.582
SLC19A1	-0.109	1.43	-0.118	-0.254
DCT (dopachrome tautomerase)	-0.189	2.86	-0.0958	-0.309
FCER1G (Fc epsilon receptor Ig)	-0.429	3.22	-0.433	-0.316
PHKG1 (phosphorylase kinase catalytic subunit gamma 1)	-0.077	2.27	0.0884	0.114
ALG5 (ALG5 dolichyl-phosphate beta-glucosyltransferase)	0.146	2.32	0.39	0.151
PCDHGA6 (protocadherin gamma subfamily A, 6)	-0.166	2.1	-0.228	-0.135
NPEPL1 (aminopeptidase like 1)	0.894	1.98	0.93	0.905
GPI (glucose-6-phosphate isomerase)	-0.367	2.7	-0.408	-0.273
SRM (spermidine synthase)	0.0368	3.21	0.0206	0.048
SLC25A18	0.411	1.47	0.233	0.149
OAZ3 (ornithine decarboxylase antizyme 3)	-0.267	2.43	-0.117	-0.124
CSN2 (casein beta)	0.471	4.35	0.653	0.388
ETNK1 (ethanolamine kinase 1)	0.459	1.41	0.53	0.45
MATN1 (matrilin 1)	-0.128	3.69	-0.0251	-0.173
RACGAP1P1 (Rac GTPase activating protein 1 pseudogene 1)	0.146	3.07	0.00652	0.17
DMC1 (DNA meiotic recombinase 1)	0.032	2.65	0.0963	0.0642
ITM2B (integral membrane protein 2B)	0.00159	1.32	-0.258	0.0388
GPT2 (glutamic--pyruvic transaminase 2)	0.014	2.48	0.0237	-0.136
USP24 (ubiquitin specific peptidase 24)	-0.49	1.81	-0.283	-0.657
PRR12 (proline rich 12)	-0.664	1.89	-0.844	-0.588
GRIA2 (glutamate ionotropic receptor AMPA type subunit 2)	-0.309	2.14	-0.375	-0.151
IFI44L (interferon induced protein 44 like)	-0.481	2.82	-0.619	-0.447
SHPK (sedoheptulokinase)	0.245	1.53	0.644	-0.31
DUX4L1 (double homeobox 4 like 1 (pseudogene))	-0.216	2.02	-0.0645	-0.2
USP14 (ubiquitin specific peptidase 14)	0.319	1.33	0.394	0.235
PLPP1 (phospholipid phosphatase 1)	0.441	2.56	0.644	0.236
SGCB (sarcoglycan beta)	-0.539	2.53	-0.614	-0.393
ORC6 (origin recognition complex subunit 6)	0.52	1.02	0.322	0.618
DEDD (death effector domain containing)	0.916	0.514	0.913	0.774
EPHX2 (epoxide hydrolase 2)	-0.454	2.6	-0.214	-0.405
FCGR1A (Fc gamma receptor Ia)	-0.746	2.19	-0.68	-0.699
KIF21A (kinesin family member 21A)	-0.339	3.61	-0.454	-0.405

An excerpt from the list above, for reference:
target gene	mean correlation with KSR1 profile	mean distance from KSR1 profile	KSR1 correlation, replicate 1	KSR1 correlation, replicate 2
CCDC91 (coiled-coil domain containing 91)	-0.375	1.72	-0.448	-0.582
SLC19A1	-0.109	1.43	-0.118	-0.254
DCT (dopachrome tautomerase)	-0.189	2.86	-0.0958	-0.309
